Measurements as given in patent US7390873B2 (University of British Columbia, priority 1995, dated 2008).
End groups of sequences in plain letters are not given here. Strings that start with PEPTIDE1 are HELM notation: dots part the residues, brackets hold end groups and non-standard residues.

Test: general procedure: peptide synthesis; copoly(styrene-divinylbenzene) containing 0.1-1.0 mMol amines/g polymer
Settings: whole synthesis
With ILKPWKWPWWPWRRKK the “purity (crude or final not stated)” value was “approximately 80% pure”.
For ILPWKWPWWPWRR, the “purity (crude or final not stated)” value was “at least 99% pure”.
With “PEPTIDE1{I.L.K.K.W.P.W.W.P.W.K.W.K.K}$$$$V2.0” the “purity (crude or final not stated)” value was “at least 99% pure”.
With “PEPTIDE1{I.L.K.K.W.P.W.W.P.W.R.R.K}$$$$V2.0” the “purity (crude or final not stated)” value was “at least 99% pure”.
